Results taken from US20250057985A1, “REEXPRESSION OF HNF4A TO ALLEVIATE CANCER-ASSOCIATED CACHEXIA” (YEDA RESEARCH AND DEVELOPMENT CO. LTD., priority 2022, published 2025).
“Also recorded” adds a separate entry of the source. At least one compound was matched to its structure with a doubt left.

Test system: ERK
Assay: In-vivo Erk inhibition in 4T1 BC mice
Design: species or system mouse
Conditions: 1 mg/kg I.P.

## CC(=O)Nc1cccc(-n2c(=O)n(C3CC3)c(=O)c3c(Nc4ccc(I)cc4F)n(C)c(=O)c(C)c32)c1 [Trametinib]
4T1 BC mice, vs vehicle, western blot, 1 mg/kg
  expression levels of HNF4α in liver: maintained; also recorded: increased
4T1 mice
  expression levels of liver UC enzymes: maintained
4T1 mice, days 8 and 14
  tumor size: reduced
